Data: patent US4647553 (dated 1987)

Assays:
[1] = general procedure: Boc solid-phase peptide synthesis; benzhydrylamine.HCl resin; carbodiimide or active ester; details: whole synthesis
[2] = general procedure: Boc solid-phase peptide synthesis; carbodiimide or active ester; details: whole synthesis
[3] = general procedure: Boc solid-phase peptide synthesis; Boc-Pro-resin; carbodiimide or active ester; details: whole synthesis, scale 1 mmole
[4] = solution-phase peptide synthesis; carbodiimide or active ester
[5] = general procedure: Boc solid-phase peptide synthesis; benzhydrylamine resin.HCl; carbodiimide or active ester; details: whole synthesis, scale 1 mmole
[6] = late stage modification step, TFA salt

**Q.** Which crude mass ([1]; scale 1 mmole) does the source give for “Glp--His(Tos)--Trp--Ser(OBzl)--Tyr(OBzl)--Gly--Phe--Gln--Pro--Gly” here?
**A.** 980 mg

**Q.** And the crude yield [2]?
**A.** 82%

**Q.** And the isolated yield ([2]; run 1)?
**A.** 49%

**Q.** What about the isolated yield ([2]; run 2) of the same substance?
**A.** 38%

**Q.** What does the source list for “Glp--His(DNP)--Trp--Ser(OBzl)--Tyr(OBzl)--Gly--Trp--Leu--Pro”?
**A.** crude yield [2]: 59%; isolated yield ([2]; run 1): 41%; isolated yield ([2]; run 2): 26%; crude mass [3]: 710 mg

**Q.** Which step yield [4, 6] does the source give for H--D--Phe--Leu--Gln--Pro--NHEt.TFA here?
**A.** 68%

**Q.** Which crude mass ([1]; scale 0.5 mmole) does the source give for “Glp--His(Tos)--Trp--Ser(OBzl)--Tyr(OBzl)--Gly--Phe--Leu--Pro--Gly” here?
**A.** 510 mg

**Q.** And the crude yield [2]?
**A.** 87%

**Q.** What about the isolated yield ([2]; run 1) of the same substance?
**A.** 62%

**Q.** What about the isolated yield ([2]; run 2) of the same substance?
**A.** 51%

**Q.** Which results are given for “Glp--His(DNP)--Trp--Ser(OBzl)--Tyr--Gly--Trp--Gln--Pro--Gly”?
**A.** crude yield ([2]; scale 1 mmole): 65%; isolated yield ([2]; run 1): 42%; isolated yield ([2]; run 2): 31%; crude mass [5]: 0.8 g

**Q.** Which step yield ([4]; coupling step) does the source give for [pGlu]HWSY[dF]LQP-NHEt here?
**A.** 62%

**Q.** For H--Gly--Trp--Gln--Pro--NHEt.TFA, which step yield [4, 6] is on record?
**A.** 76.6%

**Q.** With [pGlu]HWSY-OMe as the substance, how does the step yield ([4]; coupling step) read?
**A.** 100%

**Q.** Which step yield ([4]; coupling step) does the source give for Boc-GWQP-NHEt here?
**A.** 81%

**Q.** With Boc-[dF]LQP-NHEt as the substance, how does the step yield ([4]; coupling step) read?
**A.** 89%

**Q.** With Glp--His--Trp--Ser--Tyr--N2 H3 as the substance, how does the step yield ([4]; late stage modification step, calculated for the two steps) read?
**A.** 56.9%

**Q.** With D--Phe^6, Gln^8 --GnRH as the substance, how does the isolated yield ([2]; run 1) read?
**A.** 55%

**Q.** And the isolated yield ([2]; run 2)?
**A.** 32%

**Q.** For [pGlu]HWSYGWQP-NHEt, which step yield ([4]; coupling step) is on record?
**A.** 52%

[ ]: non-standard residue; d: D form. The star is where a group is joined. pGlu = O=C1CC[C@@H](C(=O)O)N1; Boc = CC(C)(C)OC(=O)*
